These are yes or no findings as the source states them, for the method shown. In cells and extracts the contact can be indirect. Some binding calls cover weakened binding; strength is not graded here.

By UniProt entry, the sequences of proteins in these tests, tags left out.
UniProt P13864: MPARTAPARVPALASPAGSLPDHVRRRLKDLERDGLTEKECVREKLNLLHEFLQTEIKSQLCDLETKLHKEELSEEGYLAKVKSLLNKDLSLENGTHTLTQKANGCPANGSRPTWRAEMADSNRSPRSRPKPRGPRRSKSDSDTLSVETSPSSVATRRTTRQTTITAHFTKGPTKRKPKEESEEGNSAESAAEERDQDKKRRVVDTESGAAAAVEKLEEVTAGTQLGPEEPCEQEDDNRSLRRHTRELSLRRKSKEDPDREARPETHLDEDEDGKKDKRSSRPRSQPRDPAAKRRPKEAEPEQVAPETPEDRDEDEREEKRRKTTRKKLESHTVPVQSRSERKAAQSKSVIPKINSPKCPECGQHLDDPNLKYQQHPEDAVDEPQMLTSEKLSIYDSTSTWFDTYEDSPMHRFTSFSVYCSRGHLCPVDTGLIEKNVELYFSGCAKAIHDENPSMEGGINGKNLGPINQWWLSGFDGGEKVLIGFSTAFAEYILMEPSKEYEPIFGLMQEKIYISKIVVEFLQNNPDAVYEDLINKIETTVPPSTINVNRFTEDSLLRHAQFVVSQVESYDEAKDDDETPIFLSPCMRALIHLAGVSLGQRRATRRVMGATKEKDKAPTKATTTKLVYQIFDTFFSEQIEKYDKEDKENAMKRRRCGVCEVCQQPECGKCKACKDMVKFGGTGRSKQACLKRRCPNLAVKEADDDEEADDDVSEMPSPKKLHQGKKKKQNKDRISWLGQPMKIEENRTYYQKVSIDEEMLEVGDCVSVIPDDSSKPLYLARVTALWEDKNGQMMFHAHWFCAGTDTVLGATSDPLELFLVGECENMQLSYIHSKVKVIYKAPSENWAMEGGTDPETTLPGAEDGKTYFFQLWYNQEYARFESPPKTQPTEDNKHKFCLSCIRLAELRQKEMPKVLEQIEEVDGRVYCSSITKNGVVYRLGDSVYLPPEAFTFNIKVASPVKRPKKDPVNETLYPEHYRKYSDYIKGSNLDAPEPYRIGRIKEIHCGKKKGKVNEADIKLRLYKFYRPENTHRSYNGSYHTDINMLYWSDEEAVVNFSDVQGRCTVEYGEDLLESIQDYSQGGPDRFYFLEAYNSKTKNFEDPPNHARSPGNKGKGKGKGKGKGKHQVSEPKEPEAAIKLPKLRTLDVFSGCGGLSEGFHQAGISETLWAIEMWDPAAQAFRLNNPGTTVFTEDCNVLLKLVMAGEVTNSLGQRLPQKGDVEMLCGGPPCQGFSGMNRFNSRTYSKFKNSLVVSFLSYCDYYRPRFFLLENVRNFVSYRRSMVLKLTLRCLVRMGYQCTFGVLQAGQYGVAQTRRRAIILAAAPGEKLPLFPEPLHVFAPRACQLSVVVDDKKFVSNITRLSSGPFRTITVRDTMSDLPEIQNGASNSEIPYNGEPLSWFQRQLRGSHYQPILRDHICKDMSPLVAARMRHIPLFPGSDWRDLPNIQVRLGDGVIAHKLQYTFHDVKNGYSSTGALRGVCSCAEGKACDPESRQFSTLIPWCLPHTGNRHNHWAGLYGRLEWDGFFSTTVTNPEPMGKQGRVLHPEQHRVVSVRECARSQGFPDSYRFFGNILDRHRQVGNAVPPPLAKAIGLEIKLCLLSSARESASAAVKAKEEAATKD

This note sets out measurements from article PMC9714148.

The target in test [1] is DNMT1 (mouse (endogenous in C2C12)) (UniProt P13864). In words: co-IP; endogenous proteins in lysate of C2C12 cells differentiated for 4 d; IP with 5 ug antibody overnight at 4 °C, Protein A/G PLUS-Agarose 2 h at 4 °C, Western blot; DNA methylases as bait and, reversed, RNA methylases as bait; nonspecific IgG as control. (In general: Immunoblotting shows a protein as a band on a membrane.)

Test [2] concerns the target DNMT3B (mouse (endogenous in C2C12)) (UniProt O88509). The description is as above.

In the case of “DNMT3B (from UniProt O88509 1-859) (enzyme)”, in test [1], the binding result is “binds”. As to “METTL3 (from UniProt Q8C3P7 1-580) (enzyme)”, the binding result in test [1] and in test [2] was “binds” throughout.
